Data as given in PubChem BioAssay AID1259405 (NCATS, 2018).
The whole screen tested about 50,000 reagents; this is a random part of them. About 4,000 of all reagents (8%) were called active. 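Mouse siRNA library applied to hamster cells; one well for each siRNA.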 Reagents against one gene are numbered here.

Assay: 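Silenced genes that increase secreted GFP made by CHO cells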 (primary screen)
Cell system: Chinese hamster CHO-K1 ovary cells with stable secreted eGFP expression
Reagent: single siRNA against mouse genes, 0.8 pmol siRNA per well (2 µl of 400 nM stock)
Timing: 3 days
Read-out: 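Percent of the per-plate non-targeting control median for intracellular GFP per well by laser scanning cytometry and for cell viability by ATP luminescence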
Scale: GFP, % of control: higher = more GFP per well, higher productivity; viability (ATP), % of control: higher = more viable cells (more ATP)
Active means: 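a knock-down is called active if GFP reaches 120% or more of non-targeting control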

no.	gene symbol	reagent	GFP, % of control	viability (ATP), % of control	Call
1	Cspg4 (chondroitin sulfate proteoglycan 4)	1	79.1	67.1	inactive
2	Cspg4 (chondroitin sulfate proteoglycan 4)	2	58.5	87.8	inactive
3	Cspg4 (chondroitin sulfate proteoglycan 4)	3	110	95.1	inactive
4	Arhgef4 (Rho guanine nucleotide exchange factor 4)	1	64.1	43.1	inactive
5	Arhgef4 (Rho guanine nucleotide exchange factor 4)	2	61.5	70.2	inactive
6	Arhgef4 (Rho guanine nucleotide exchange factor 4)	3	91.6	68.4	inactive
7	Arhgef4 (Rho guanine nucleotide exchange factor 4)	4	134	147	active
8	Arhgef4 (Rho guanine nucleotide exchange factor 4)	5	114	125	inactive
9	Arhgef4 (Rho guanine nucleotide exchange factor 4)	6	102	119	inactive
10	Capn10 (calpain 10)	1	71.9	68.8	inactive
11	Capn10 (calpain 10)	2	63.1	73.4	inactive
12	Capn10 (calpain 10)	3	115	70.5	inactive
13	Cdkn2a (cyclin dependent kinase inhibitor 2A)	1	75.4	66	inactive
14	Cdkn2a (cyclin dependent kinase inhibitor 2A)	2	68.6	43.5	inactive
15	Cdkn2a (cyclin dependent kinase inhibitor 2A)	3	103	100	inactive
16	Gm3696 (predicted gene 3696)	1	84.1	109	inactive
17	Gm3696 (predicted gene 3696)	2	49	72.1	inactive
18	Gm3696 (predicted gene 3696)	3	116	91.6	inactive
19	Tedc1 (tubulin epsilon and delta complex 1)	1	70.7	47.9	inactive
20	Tedc1 (tubulin epsilon and delta complex 1)	2	64.5	66.5	inactive
21	Tedc1 (tubulin epsilon and delta complex 1)	3	58.6	52.7	inactive
22	Dapk1 (death associated protein kinase 1)	1	95.8	83.9	inactive
23	Cox7b2 (cytochrome c oxidase subunit 7B2)	1	51.7	52.6	inactive
24	Cox7b2 (cytochrome c oxidase subunit 7B2)	2	129	68.5	active
25	Cox7b2 (cytochrome c oxidase subunit 7B2)	3	110	100	inactive
26	Gh (growth hormone)	1	76.2	51.7	inactive
27	Gh (growth hormone)	2	87.7	73.4	inactive
28	Gh (growth hormone)	3	32.3	35.4	inactive
29	Slc13a4	1	95.1	96.1	inactive
30	Slc13a4	2	55	60	inactive
31	Slc13a4	3	54.2	69.8	inactive
32	Arhgdia (Rho GDP dissociation inhibitor alpha)	1	131	76.4	active
33	Arhgdia (Rho GDP dissociation inhibitor alpha)	2	114	103	inactive
34	Arhgdia (Rho GDP dissociation inhibitor alpha)	3	72	93.2	inactive
35	Gpm6a (glycoprotein m6a)	1	56.1	65.6	inactive
36	Gpm6a (glycoprotein m6a)	2	58.7	89.2	inactive
37	Gpm6a (glycoprotein m6a)	3	124	101	active
38	Wap (whey acidic protein)	1	107	103	inactive
39	Wap (whey acidic protein)	2	42.1	63	inactive
40	Wap (whey acidic protein)	3	94.4	95.9	inactive
41	Rnf14 (ring finger protein 14)	1	48.9	31.8	inactive
42	Rnf14 (ring finger protein 14)	2	41.9	41.8	inactive
43	Rnf14 (ring finger protein 14)	3	101	90.7	inactive
44	Arl13b (ADP-ribosylation factor-like 13B)	1	124	105	active
45	Arl13b (ADP-ribosylation factor-like 13B)	2	44	48	inactive
46	Arl13b (ADP-ribosylation factor-like 13B)	3	112	105	inactive
47	H2bc27 (H2B clustered histone 27)	1	117	117	inactive
48	H2bc27 (H2B clustered histone 27)	2	72.2	59.5	inactive
49	H2bc27 (H2B clustered histone 27)	3	140	99	active
50	Tm6sf1 (transmembrane 6 superfamily member 1)	1	99.7	68.1	inactive
51	Tm6sf1 (transmembrane 6 superfamily member 1)	2	54.8	50.4	inactive
52	Tm6sf1 (transmembrane 6 superfamily member 1)	3	81.5	56.9	inactive
53	Abcc12 (ATP-binding cassette, sub-family C member 12)	1	103	116	inactive
54	Abcc12 (ATP-binding cassette, sub-family C member 12)	2	81.5	50.2	inactive
55	Abcc12 (ATP-binding cassette, sub-family C member 12)	3	85.4	74.3	inactive
56	Barx2 (BarH-like homeobox 2)	1	166	126	active
57	Barx2 (BarH-like homeobox 2)	2	34.5	35.6	inactive
58	Barx2 (BarH-like homeobox 2)	3	71.4	68.4	inactive
59	Gmpr (guanosine monophosphate reductase)	1	87.8	113	inactive
60	Gmpr (guanosine monophosphate reductase)	2	131	90.2	active
61	Gmpr (guanosine monophosphate reductase)	3	85.7	78.8	inactive
62	Ubl5 (ubiquitin-like 5)	1	46.5	76.5	inactive
63	Ubl5 (ubiquitin-like 5)	2	50.5	52.8	inactive
64	Ubl5 (ubiquitin-like 5)	3	46.8	47.4	inactive
65	Fabp3 (fatty acid binding protein 3, muscle and heart)	1	97.8	89.5	inactive
66	Fabp3 (fatty acid binding protein 3, muscle and heart)	2	112	92.1	inactive
67	Fabp3 (fatty acid binding protein 3, muscle and heart)	3	71.6	61.6	inactive
68	Mpo (myeloperoxidase)	1	131	119	active
69	Mpo (myeloperoxidase)	2	79.3	59.6	inactive
70	Mpo (myeloperoxidase)	3	109	64.3	inactive
71	Tyw3 (tRNA-yW synthesizing protein 3 homolog (S. cerevisiae))	1	67.8	60.6	inactive
72	Tyw3 (tRNA-yW synthesizing protein 3 homolog (S. cerevisiae))	2	73.3	82.3	inactive
73	Tyw3 (tRNA-yW synthesizing protein 3 homolog (S. cerevisiae))	3	105	132	inactive
74	Pou3f2 (POU domain, class 3, transcription factor 2)	1	89.1	84.5	inactive
75	Pou3f2 (POU domain, class 3, transcription factor 2)	2	111	84.2	inactive
76	Pou3f2 (POU domain, class 3, transcription factor 2)	3	77.8	83.2	inactive
77	Farsa (phenylalanyl-tRNA synthetase, alpha subunit)	1	103	79.3	inactive
78	Farsa (phenylalanyl-tRNA synthetase, alpha subunit)	2	105	85.2	inactive
79	Fate1 (fetal and adult testis expressed 1)	1	67.5	71.1	inactive
80	Fate1 (fetal and adult testis expressed 1)	2	79.9	67.1	inactive
81	Fate1 (fetal and adult testis expressed 1)	3	76.3	106	inactive
82	Spink10 (serine peptidase inhibitor, Kazal type 10)	1	104	53.8	inactive
83	Spink10 (serine peptidase inhibitor, Kazal type 10)	2	47	55.2	inactive
84	Spink10 (serine peptidase inhibitor, Kazal type 10)	3	83.8	101	inactive
85	Mycl (Mycl proto-oncogene, bHLH transcription factor)	1	90.1	76.5	inactive
86	Mycl (Mycl proto-oncogene, bHLH transcription factor)	2	73	75.6	inactive
87	Mycl (Mycl proto-oncogene, bHLH transcription factor)	3	88.7	83.5	inactive
88	Ccdc134 (coiled-coil domain containing 134)	1	33.8	55.7	inactive
89	Ccdc134 (coiled-coil domain containing 134)	2	50.9	47	inactive
90	Ccdc134 (coiled-coil domain containing 134)	3	92.3	107	inactive
91	Acsf3 (acyl-CoA synthetase family member 3)	1	144	100	active
92	Acsf3 (acyl-CoA synthetase family member 3)	2	133	86.7	active
93	Acsf3 (acyl-CoA synthetase family member 3)	3	31.8	23	inactive
94	Pcsk1 (proprotein convertase subtilisin/kexin type 1)	1	66.2	72.5	inactive
95	Pcsk1 (proprotein convertase subtilisin/kexin type 1)	2	55.7	50.7	inactive
96	Pcsk1 (proprotein convertase subtilisin/kexin type 1)	3	65.4	56.8	inactive
97	Ttc32 (tetratricopeptide repeat domain 32)	1	98.2	88.1	inactive
98	Ttc32 (tetratricopeptide repeat domain 32)	2	127	74.6	active
99	Ttc32 (tetratricopeptide repeat domain 32)	3	91.2	72.9	inactive
100	Reps2 (RALBP1 associated Eps domain containing protein 2)	1	72.5	66.6	inactive
101	Reps2 (RALBP1 associated Eps domain containing protein 2)	2	89.3	82.3	inactive
102	Reps2 (RALBP1 associated Eps domain containing protein 2)	3	38.7	53.6	inactive
103	S1pr4 (sphingosine-1-phosphate receptor 4)	1	68.4	78.1	inactive
104	S1pr4 (sphingosine-1-phosphate receptor 4)	2	54	69.1	inactive
105	S1pr4 (sphingosine-1-phosphate receptor 4)	3	56	57.6	inactive
106	Agap1 (ArfGAP with GTPase domain, ankyrin repeat and PH domain 1)	1	84.8	89	inactive
107	Agap1 (ArfGAP with GTPase domain, ankyrin repeat and PH domain 1)	2	80.8	80.3	inactive
108	Agap1 (ArfGAP with GTPase domain, ankyrin repeat and PH domain 1)	3	53.9	55.2	inactive

In a second layout: 16 of the entries above.
gene symbol | reagent | GFP, % of control | viability (ATP), % of control | Call
Rnf14 (ring finger protein 14) | 3 | 101 | 90.7 | inactive
Arl13b (ADP-ribosylation factor-like 13B) | 1 | 124 | 105 | active
Arl13b (ADP-ribosylation factor-like 13B) | 2 | 44 | 48 | inactive
Arl13b (ADP-ribosylation factor-like 13B) | 3 | 112 | 105 | inactive
H2bc27 (H2B clustered histone 27) | 1 | 117 | 117 | inactive
H2bc27 (H2B clustered histone 27) | 2 | 72.2 | 59.5 | inactive
H2bc27 (H2B clustered histone 27) | 3 | 140 | 99 | active
Tm6sf1 (transmembrane 6 superfamily member 1) | 1 | 99.7 | 68.1 | inactive
Tm6sf1 (transmembrane 6 superfamily member 1) | 2 | 54.8 | 50.4 | inactive
Tm6sf1 (transmembrane 6 superfamily member 1) | 3 | 81.5 | 56.9 | inactive
Abcc12 (ATP-binding cassette, sub-family C member 12) | 1 | 103 | 116 | inactive
Abcc12 (ATP-binding cassette, sub-family C member 12) | 2 | 81.5 | 50.2 | inactive
Abcc12 (ATP-binding cassette, sub-family C member 12) | 3 | 85.4 | 74.3 | inactive
Barx2 (BarH-like homeobox 2) | 1 | 166 | 126 | active
Barx2 (BarH-like homeobox 2) | 2 | 34.5 | 35.6 | inactive
Barx2 (BarH-like homeobox 2) | 3 | 71.4 | 68.4 | inactive
